doi:10.1101/2021.04.30.442137
These are yes or no findings as the source states them, for the method shown. Binding calls can cover weak binding; strength is not graded here.

Sequences of proteins named here, by UniProt entry; tags and fusion partners are left off. A change or cut given only in a name is not applied to a line headed by its entry.
UniProt Q84M91: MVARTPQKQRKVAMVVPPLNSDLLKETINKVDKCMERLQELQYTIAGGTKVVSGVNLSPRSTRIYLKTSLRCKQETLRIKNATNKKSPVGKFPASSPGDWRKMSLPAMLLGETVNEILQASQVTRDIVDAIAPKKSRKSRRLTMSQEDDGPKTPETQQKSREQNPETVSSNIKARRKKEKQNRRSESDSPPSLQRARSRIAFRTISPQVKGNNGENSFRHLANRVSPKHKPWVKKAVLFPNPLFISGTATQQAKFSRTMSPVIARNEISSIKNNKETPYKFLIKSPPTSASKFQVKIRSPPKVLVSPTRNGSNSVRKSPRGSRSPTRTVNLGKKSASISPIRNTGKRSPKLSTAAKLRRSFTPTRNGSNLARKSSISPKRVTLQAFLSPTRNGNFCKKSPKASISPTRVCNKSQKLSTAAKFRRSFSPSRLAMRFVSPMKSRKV

Assays:
[1] = target: TANGLED1 (TAN1) in pBD (Arabidopsis) (UniProt Q84M91); experiment: two-hybrid
[2] = target: TANGLED1 amino acids 1-132 (TAN1_(1-132)) in pAS (Arabidopsis) (UniProt Q84M91); experiment: two-hybrid

binding [1]: binds
binding [2]: binds
B1: PHRAGMOPLAST ORIENTING KINESIN1 (POK1), C-terminal amino acids 1683-2066, in pAD (domain or fragment, UniProt Q27IK7 1683-2066)
chain: DMDEEVKRHRTTQDSLETELQALRQRLFRFENFTGTMVTTNESTEEYKSHISRSTGLQGAHSQIQVLQKEVAEQTKEIKQLKEYISEILLHSEAQSSAYQEKYKTLEVMIRDFKLEDSSSSAAETISHKTEKSSTRSRGSSSPFRCIVGLVQQMKLEKDQELTMARVRVEELESLLAVKQKEICTLNTRIAAADSMTHDVIRDLLGVKMDITSYAELIDQHQVQRVVEKAQQHAEEILSKEQEVMNLKRHIDYLFKDRESCMSELNKKDTDVLATQISLDQLQERVQLLSMQNEMLKNDKSNLLRKLAELDRTVHNAQASNHRVPQTTKDTASFKLADTDYTKRLENAQKLLSHANNELAKYRKTSNNHPSTRTQGQSSGTRYR
